Measurements taken from patent US8357816B2, “Chemical compounds” (Syngenta Crop Protection LLC, priority 2002, dated 2013).
Some entries share one result that the patent states for a list of compounds. Some ranges recur; such a range may be that of the whole group of compounds.

Experiments:
Type in all cases: in vivo
Puccinia recondite = experiment: Action against Puccinia recondite/wheat (brownrust on wheat); details: wheat plants cv. Arina, 0.02% active ingredient sprayed 1 day before inoculation, assessed 10 days after inoculation
Podosphaera leucotricha = experiment: Action against Podosphaera leucotricha/apple (powdery mildew on apple); details: apple seedlings cv. McIntosh, 0.002% active ingredient sprayed 1 day before inoculation, assessed after 12 days incubation
Erysiphe graminis = experiment: Action against Erysiphe graminis/barley (powdery mildew on barley); details: barley plants cv. Express, 0.02% active ingredient sprayed 1 day before inoculation, assessed after 6 days incubation

Structure (SMILES): Cn1cc(C(=O)Nc2ccccc2[Si](C)(C)C)c(C(F)(F)F)n1 [Compound 1.1]
- infestation (prevented virtually completely) (Puccinia recondite): 0-5%
- infestation (strong efficacy) (Podosphaera leucotricha): < 20%
- infestation (strong efficacy) (Erysiphe graminis): < 20%
